Assay [1] deals with T1, endogenous PABPN1 of RAW264.7 cells (mouse (endogenous in RAW264.7)) (UniProt Q8CCS6).
T1 sequence: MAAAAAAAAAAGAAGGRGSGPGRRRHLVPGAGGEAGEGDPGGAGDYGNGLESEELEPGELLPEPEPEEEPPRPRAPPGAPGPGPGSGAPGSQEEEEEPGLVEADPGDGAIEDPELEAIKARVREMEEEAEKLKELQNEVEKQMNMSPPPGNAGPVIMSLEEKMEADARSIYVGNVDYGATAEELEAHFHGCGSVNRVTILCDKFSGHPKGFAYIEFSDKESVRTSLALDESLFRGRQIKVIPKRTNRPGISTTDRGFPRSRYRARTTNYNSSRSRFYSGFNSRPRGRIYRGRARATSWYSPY
Nature of the assay: co-IP; whole-cell extracts of RAW264.7 cells, untreated or 100 ng/ml LPS for 6 h; lysates treated with calf intestinal phosphatase; 150 mM NaCl; immunoprecipitation with anti-PABPN1 at 4°C for 3 h; blot with anti-TTP.

The next assay deals with T2, Flag-TTP@15-306 (mouse) (UniProt P22893).
T2 sequence: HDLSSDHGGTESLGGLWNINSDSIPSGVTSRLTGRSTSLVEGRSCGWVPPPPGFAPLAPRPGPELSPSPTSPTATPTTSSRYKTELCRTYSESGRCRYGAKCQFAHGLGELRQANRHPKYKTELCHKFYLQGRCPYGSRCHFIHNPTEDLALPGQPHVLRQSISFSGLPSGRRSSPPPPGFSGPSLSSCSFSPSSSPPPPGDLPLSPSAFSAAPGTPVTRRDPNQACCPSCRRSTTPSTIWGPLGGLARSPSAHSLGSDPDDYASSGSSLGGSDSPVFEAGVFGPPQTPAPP
Briefly: co-IP; cell lysates / whole-cell extracts of HEK293T cells transfected with Flag-TTP constructs (Figure S3: with Flag-p38 and dominantly negative Flag-MKK3); anti-Flag M2 agarose; blot with anti-PABPN1.

Another assay concerns the target T3, Flag-TTP@15-319 (mouse) (UniProt P22893).
T3 sequence: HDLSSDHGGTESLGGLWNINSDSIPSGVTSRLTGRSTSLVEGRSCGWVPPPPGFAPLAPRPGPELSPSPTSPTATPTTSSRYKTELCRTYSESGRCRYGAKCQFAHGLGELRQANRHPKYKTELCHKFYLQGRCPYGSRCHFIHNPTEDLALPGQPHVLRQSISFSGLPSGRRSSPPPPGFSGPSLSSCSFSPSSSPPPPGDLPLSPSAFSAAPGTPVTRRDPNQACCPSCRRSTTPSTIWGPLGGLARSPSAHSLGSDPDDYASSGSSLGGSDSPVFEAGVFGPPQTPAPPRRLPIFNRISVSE
Described as above.

The target of another assay is T4, Flag-TTP@15-186 (mouse) (UniProt P22893).
T4 sequence: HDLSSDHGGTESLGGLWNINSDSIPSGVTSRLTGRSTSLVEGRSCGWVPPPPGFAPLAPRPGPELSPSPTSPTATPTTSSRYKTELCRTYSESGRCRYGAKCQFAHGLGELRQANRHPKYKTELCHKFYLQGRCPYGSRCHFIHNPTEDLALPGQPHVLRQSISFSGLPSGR
Described as above.

These are yes or no findings as the source states them, for the method shown. Binding seen in cells or lysates may run through a third protein. Some binding calls cover weakened binding; strength is not graded here. For some of these results: Tags and fused reporters may be left off the sequences shown.

B1: endogenous TTP of RAW264.7 cells (protein, UniProt P22893 1-319)
chain: MDLSAIYESLQSMSHDLSSDHGGTESLGGLWNINSDSIPSGVTSRLTGRSTSLVEGRSCGWVPPPPGFAPLAPRPGPELSPSPTSPTATPTTSSRYKTELCRTYSESGRCRYGAKCQFAHGLGELRQANRHPKYKTELCHKFYLQGRCPYGSRCHFIHNPTEDLALPGQPHVLRQSISFSGLPSGRRSSPPPPGFSGPSLSSCSFSPSSSPPPPGDLPLSPSAFSAAPGTPVTRRDPNQACCPSCRRSTTPSTIWGPLGGLARSPSAHSLGSDPDDYASSGSSLGGSDSPVFEAGVFGPPQTPAPPRRLPIFNRISVSE
As for B1, the binding entry in assay [1] is on record as “binds”.

B2: endogenous PABPN1 of HEK293T cells (protein, UniProt Q86U42 1-306)
chain: MAAAAAAAAAAGAAGGRGSGPGRRRHLVPGAGGEAGEGAPGGAGDYGNGLESEELEPEELLLEPEPEPEPEEEPPRPRAPPGAPGPGPGSGAPGSQEEEEEPGLVEGDPGDGAIEDPELEAIKARVREMEEEAEKLKELQNEVEKQMNMSPPPGNAGPVIMSIEEKMEADARSIYVGNVDYGATAEELEAHFHGCGSVNRVTILCDKFSGHPKGFAYIEFSDKESVRTSLALDESLFRGRQIKVIPKRTNRPGISTTDRGFPRARYRARTTNYNSSRSRFYSGFNSRPRGRVYRGRARATSWYSPY
Regarding B2, the binding result with Flag-TTP@15-306 (mouse), with Flag-TTP@15-319 (mouse) and with Flag-TTP@15-186 (mouse) was “binds” in each case.

Source of the values: PMC3406032, “Tristetraprolin Inhibits Poly(A)-Tail Synthesis in Nuclear mRNA that Contains AU-Rich Elements by Interacting with Poly(A)-Binding Protein Nuclear 1” (PLoS ONE, 2012).
